Reference: PubChem BioAssay AID1159584 (Peter MacCallum Cancer Centre, 2016)
Here is a random part of about 18,000 reagents tested. Further read-outs or replicates are left out here. Not stated in the record: the amount of reagent, the time to read-out.

- Assay: 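Knock-downs that harm CDH1-null cells more than parental MCF10A cells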 (primary screen)
- System: human MCF10A breast epithelial cells, parental and CDH1-null
- Reagent: siRNA against human genes
- Measured: 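ATP luminescence (CellTiter-Glo) viability per line relative to mean mock wells over all plates, and the ratio of CDH1-null to parental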
- Direction: CDH1-null / parental viability ratio: higher = CDH1-null cells survive relatively better than parental; CDH1-null viability vs mock: higher = more viable CDH1-null cells

gene symbol	CDH1-null / parental viability ratio	CDH1-null viability vs mock (fraction of mock)
C5orf22	0.64	0.56
MLF2	1.14	0.73
KRTAP5-6	1.08	0.8
THY1	0.92	0.82
MYCN	1.05	0.99
FRMD5	0.82	0.69
TSEN15	0.79	0.82
PSMD7	1.21	0.57
PGK1	0.77	0.84
REXO1L1P	1.06	1.02
PPP4R3A	1	0.45
MAGEB2	1.18	0.92
PSMC2	1.19	0.57
ABCC3	1.24	1.04
PRDM1	1.04	1.18
MED7	1.06	0.5
DDX1	1	0.88
PDE6C	0.87	0.9
CNGB3	1.37	1.12
YARS1	1.05	0.88
KRT13	1.07	0.59
LEPROT	1.08	0.79
LZTFL1	1	0.86
CXCL8	0.81	0.48
DNASE2	0.95	0.82
PACSIN1	0.84	0.73
OR9G1	0.93	0.91
FRS2	1.32	0.83

4 entries from above, reformatted:
{"gene symbol":"ABCC3","CDH1-null / parental viability ratio":1.24,"CDH1-null viability vs mock (fraction of mock)":1.04}
{"gene symbol":"PRDM1","CDH1-null / parental viability ratio":1.04,"CDH1-null viability vs mock (fraction of mock)":1.18}
{"gene symbol":"MED7","CDH1-null / parental viability ratio":1.06,"CDH1-null viability vs mock (fraction of mock)":0.5}
{"gene symbol":"DDX1","CDH1-null / parental viability ratio":1,"CDH1-null viability vs mock (fraction of mock)":0.88}
